In article PMC8767186 one finds binding data, which are given here for two molecules.

The target in test [1] is T1, Spc105^455::GFP (FL) (S. cerevisiae) (UniProt P53148).
T1 sequence: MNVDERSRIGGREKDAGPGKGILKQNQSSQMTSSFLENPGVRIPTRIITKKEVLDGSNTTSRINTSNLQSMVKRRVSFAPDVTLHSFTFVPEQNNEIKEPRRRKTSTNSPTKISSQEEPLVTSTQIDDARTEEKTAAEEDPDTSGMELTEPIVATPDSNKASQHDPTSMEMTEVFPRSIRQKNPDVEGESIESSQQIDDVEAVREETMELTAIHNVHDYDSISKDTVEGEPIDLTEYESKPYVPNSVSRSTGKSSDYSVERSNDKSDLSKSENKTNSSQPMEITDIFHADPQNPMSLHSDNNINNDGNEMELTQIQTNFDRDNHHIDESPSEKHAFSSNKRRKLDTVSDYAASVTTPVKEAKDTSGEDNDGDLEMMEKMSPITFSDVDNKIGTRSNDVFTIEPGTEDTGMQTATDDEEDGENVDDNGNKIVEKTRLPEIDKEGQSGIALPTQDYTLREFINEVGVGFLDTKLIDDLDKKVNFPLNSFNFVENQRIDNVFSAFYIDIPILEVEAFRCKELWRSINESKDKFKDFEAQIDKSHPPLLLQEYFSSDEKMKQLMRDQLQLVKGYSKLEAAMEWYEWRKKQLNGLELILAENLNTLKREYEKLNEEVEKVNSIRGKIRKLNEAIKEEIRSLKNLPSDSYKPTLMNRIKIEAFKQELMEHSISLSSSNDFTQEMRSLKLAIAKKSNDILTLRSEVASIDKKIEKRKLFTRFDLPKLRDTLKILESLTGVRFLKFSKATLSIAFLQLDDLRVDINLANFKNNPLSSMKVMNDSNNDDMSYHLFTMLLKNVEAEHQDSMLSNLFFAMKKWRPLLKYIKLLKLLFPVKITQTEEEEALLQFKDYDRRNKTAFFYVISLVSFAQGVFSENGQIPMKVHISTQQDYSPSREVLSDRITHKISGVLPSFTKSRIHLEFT
Nature of the test: co-IP; GFP-Trap beads (Chromotek) on cleared yeast lysates in buffer H 0.15 (25 mM HEPES pH 8.0, 150 mM KCl, 0.1% IGEPAL), overnight; blots with anti-GFP and anti-Flag.

The target in test [2] is T2, spc105^Δ313–638::GFP (S. cerevisiae) (UniProt P53148).
T2 sequence: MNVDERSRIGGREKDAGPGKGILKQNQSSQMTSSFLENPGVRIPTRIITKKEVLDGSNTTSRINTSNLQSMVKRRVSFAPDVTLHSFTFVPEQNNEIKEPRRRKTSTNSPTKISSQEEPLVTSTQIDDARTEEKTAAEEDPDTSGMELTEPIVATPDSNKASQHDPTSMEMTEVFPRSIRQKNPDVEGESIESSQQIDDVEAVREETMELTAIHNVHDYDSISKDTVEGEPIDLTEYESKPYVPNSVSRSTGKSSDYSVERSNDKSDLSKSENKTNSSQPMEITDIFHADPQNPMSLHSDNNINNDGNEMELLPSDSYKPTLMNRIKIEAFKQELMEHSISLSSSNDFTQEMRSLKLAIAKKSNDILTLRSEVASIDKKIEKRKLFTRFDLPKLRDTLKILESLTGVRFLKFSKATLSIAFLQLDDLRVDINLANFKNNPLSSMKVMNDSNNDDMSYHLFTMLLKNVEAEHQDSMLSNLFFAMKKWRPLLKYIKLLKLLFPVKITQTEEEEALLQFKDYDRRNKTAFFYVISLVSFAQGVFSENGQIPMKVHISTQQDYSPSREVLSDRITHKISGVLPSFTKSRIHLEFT
The description is as above.

The target in test [3] is T3, Spc105-mCherry (S. cerevisiae) (UniProt P53148).
T3 sequence: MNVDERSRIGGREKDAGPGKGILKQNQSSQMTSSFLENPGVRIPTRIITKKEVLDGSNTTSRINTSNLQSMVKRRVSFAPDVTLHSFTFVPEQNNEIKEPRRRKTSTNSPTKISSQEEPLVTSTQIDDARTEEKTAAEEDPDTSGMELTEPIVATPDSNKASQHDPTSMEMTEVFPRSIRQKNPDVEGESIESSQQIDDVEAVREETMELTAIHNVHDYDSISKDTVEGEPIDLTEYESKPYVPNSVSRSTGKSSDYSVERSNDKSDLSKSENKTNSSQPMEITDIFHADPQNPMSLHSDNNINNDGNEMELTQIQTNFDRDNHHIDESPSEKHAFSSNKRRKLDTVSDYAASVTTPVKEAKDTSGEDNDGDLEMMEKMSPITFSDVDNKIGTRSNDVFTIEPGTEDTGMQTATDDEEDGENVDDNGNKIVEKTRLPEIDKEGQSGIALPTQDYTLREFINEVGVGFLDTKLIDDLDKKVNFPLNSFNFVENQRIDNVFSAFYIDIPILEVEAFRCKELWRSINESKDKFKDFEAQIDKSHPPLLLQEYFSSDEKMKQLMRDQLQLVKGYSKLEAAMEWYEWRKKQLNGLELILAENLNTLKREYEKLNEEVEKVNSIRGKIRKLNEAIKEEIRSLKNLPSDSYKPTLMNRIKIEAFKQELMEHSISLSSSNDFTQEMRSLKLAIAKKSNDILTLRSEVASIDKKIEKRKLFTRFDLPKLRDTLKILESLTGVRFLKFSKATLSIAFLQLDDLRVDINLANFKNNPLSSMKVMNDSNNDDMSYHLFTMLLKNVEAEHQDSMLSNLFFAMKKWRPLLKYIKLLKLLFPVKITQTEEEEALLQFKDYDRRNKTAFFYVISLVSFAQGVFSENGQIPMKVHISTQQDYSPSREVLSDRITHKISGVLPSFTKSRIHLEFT
Nature of the test: co-IP; RFP-Trap beads (Chromotek) on cleared yeast lysates in buffer H 0.15 (25 mM HEPES pH 8.0, 150 mM KCl, 0.1% IGEPAL), overnight; blots with anti-GFP and anti-DsRed; band intensities by ImageJ, normalised to full length, input and Spc105 IP.

No constants are given. Whether binding was seen depends on the method and setting. In cells and extracts the contact can be indirect. Some results given as binding are weak or reduced against the parent protein; the word gives no strength. Sequences can lack the tags named with a protein.

B1: Kre28-5xFlag (protein, UniProt Q04431 1-385)
chain: MDTGSASIKDYETVLTDIEDSIAVSSEEVLNNQELRLKNTLHEITSSILAINEENKFVNPLRNDESLDVEGKEVFVNPKILSAKIKEFNKLMELLKLTYLEQETLDYFFRFTLSSTKPLQLDSEKDPQFVKLNERVNDLKEEISNVQESKIEQIKAEIQETGHNFAERQDLINELYLEATGDIENCWDSLNELKNLTNKEDKNMMGEKDTILNSSDSDDFVEETYTNWQKLLFLQKQNQRLTKELKEMHEVKNQIIRKGEQSKKEDSGHLMANESELCQSINLLTKFWEKHFLLKGSKTTILNFEIFTQLGKVQFEIKDMQYIIAISLSDLKRPMIKDITILQKAGGNIVTDIEASSKFNNKYRNNTKVQIFEVMDDIISELTNE
For the molecule B1, the binding entry in test [1] is “binds”; in test [2], “no binding”.

B2: GFP-Kre28^FL (protein, UniProt Q04431 1-385)
chain: MDTGSASIKDYETVLTDIEDSIAVSSEEVLNNQELRLKNTLHEITSSILAINEENKFVNPLRNDESLDVEGKEVFVNPKILSAKIKEFNKLMELLKLTYLEQETLDYFFRFTLSSTKPLQLDSEKDPQFVKLNERVNDLKEEISNVQESKIEQIKAEIQETGHNFAERQDLINELYLEATGDIENCWDSLNELKNLTNKEDKNMMGEKDTILNSSDSDDFVEETYTNWQKLLFLQKQNQRLTKELKEMHEVKNQIIRKGEQSKKEDSGHLMANESELCQSINLLTKFWEKHFLLKGSKTTILNFEIFTQLGKVQFEIKDMQYIIAISLSDLKRPMIKDITILQKAGGNIVTDIEASSKFNNKYRNNTKVQIFEVMDDIISELTNE
On to B2, for which, in test [3], the binding result is given as “binds”.
